Consider one molecule from PMC5398546, “Mini-G proteins: Novel tools for studying GPCRs in their active conformation” (PLoS ONE, 2017).

This assay concerns the target T1, GFP-mini-Gs (human).
T1 construct: mini-Gs as in m7 (GαGTPase domain of Gαs, human, 3 deletions and 7 mutations); GFP joined to the N-terminus of the mini-G protein with a GGGGS linker; 54 kDa; also called GFP-mini-Gs fusion protein; source: E. coli, purified; not shown: GFP, N-terminal, kept
The assay is described as follows: fluorescent saturation binding assay (FSBA); DDM-solubilised His-tagged β1AR or A2AR immobilised on Ni2+-coated 96-well plate; GFP-mini-Gs 0 to 2.8 μM, 90 min on ice; specific binding = agonist minus inverse agonist condition; apparent KD, one-site fit. As to conditions: one partner purified.

B1: truncated wild type turkey β1-adrenergic receptor (construct βAR6) (receptor)
chain: ELLSQQWEAGMSLLMALVVLLIVAGNVLVIAAIGRTQRLQTLTNLFITSLACADLVMGLLVVPFGATLVVRGTWLWGSFLCECWTSLDVLCVTASIETLCVIAIDRYLAITSPFRYQSLMTRARAKVIICTVWAISALVSFLPIMMHWWRDEDPQALKCYQDPGCCDFVTNRAYAIASSIISFYIPLLIMIFVYLRVYREAKEQIRKIDRCEGRFYGSQEQPQPPPLPQHQPILGNGRASKRKTSRVMAMREHKALKTLGIIMGVFTLCWLPFFLVNIVNVFNRDLVPDWLFVFFNWLGYANSAFNPIIYCRSPDFRKAFKRLLCFPRKADRRLHAGGQPAPLPGGFISTLGSPEHSPGGTWSDCNGGTRGGSESSLEERHSKTSRSESKM
modifications: C-terminal His6 left out. Limits are not printed (ref. 27); 34-424 is taken by convention from the known truncated turkey beta1AR constructs of this group. Related 34-424 constructs may carry C116L …
In the case of B1, the Kd was 200 nM.
